Measured values published in paper PMC5270673, “Altered stoichiometry and nuclear delocalization of NonO and PSF promote cellular senescence” (Aging (Albany NY), 2016).
Results are given in words; binding and its absence hold for the method and conditions named. Some binding calls cover weakened binding; strength is not graded here.

Molecular target: T1, Splicing Factor Proline/Glutamine Rich, PSF/SFPQ (human (endogenous in BJ fibroblasts)) (UniProt P23246)
T1 sequence: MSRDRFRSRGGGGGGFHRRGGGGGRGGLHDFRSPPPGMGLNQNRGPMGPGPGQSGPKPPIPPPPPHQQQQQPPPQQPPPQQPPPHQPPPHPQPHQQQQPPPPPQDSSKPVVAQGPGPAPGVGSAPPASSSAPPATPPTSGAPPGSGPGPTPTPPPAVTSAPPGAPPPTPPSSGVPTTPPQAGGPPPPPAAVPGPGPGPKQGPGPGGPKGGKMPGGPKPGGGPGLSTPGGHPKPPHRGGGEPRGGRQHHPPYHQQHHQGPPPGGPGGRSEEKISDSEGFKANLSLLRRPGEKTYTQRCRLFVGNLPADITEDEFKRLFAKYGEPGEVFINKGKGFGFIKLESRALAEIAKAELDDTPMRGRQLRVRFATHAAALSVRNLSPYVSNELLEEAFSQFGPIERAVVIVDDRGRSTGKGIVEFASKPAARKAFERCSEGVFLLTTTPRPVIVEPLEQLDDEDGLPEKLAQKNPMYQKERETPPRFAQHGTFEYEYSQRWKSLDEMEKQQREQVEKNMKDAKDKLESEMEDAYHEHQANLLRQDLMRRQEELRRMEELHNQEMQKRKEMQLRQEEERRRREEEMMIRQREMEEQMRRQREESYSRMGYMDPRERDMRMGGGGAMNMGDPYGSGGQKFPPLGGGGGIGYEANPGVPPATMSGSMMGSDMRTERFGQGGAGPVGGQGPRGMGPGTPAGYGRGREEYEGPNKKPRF
Test: SEC; Superose 6 FPLC of nuclear and cytoplasmic extracts of BJ fibroblasts, untransfected or overexpressing NonO, day 8; 400 mM KCl, 20 mM HEPES pH 7.9, 1.0 mM MgCl2, 0.5 mM EGTA, 10% glycerol; fractions blotted with anti-NonO and anti-PSF; masses estimated from marker proteins

B1: NonO overexpressed in BJ fibroblasts (natural protein, UniProt Q99K48 1-473, looked up)
chain: MQSNKAFNLEKQNHTPRKHHQHHHQQHHQQQQQQQQQQPPPPIPANGQQASSQNEGLTIDLKNFRKPGEKTFTQRSRLFVGNLPPDITEEEMRKLFEKYGKAGEVFIHKDKGFGFIRLETRTLAEIAKVELDNMPLRGKQLRVRFACHSASLTVRNLPQYVSNELLEEAFSVFGQVERAVVIVDDRGRPSGKGIVEFSGKPAARKALDRCSEGSFLLTTFPRPVTVEPMDQLDDEEGLPEKLVIKNQQFHKEREQPPRFAQPGSFEYEYAMRWKALIEMEKQQQDQVDRNIKEAREKLEMEMEAARHEHQVMLMRQDLMRRQEELRRMEELHNQEVQKRKQLELRQEEERRRREEEMRRQQEEMMRRQQEGFKGTFPDAREQEIRMGQMAMGGAMGINNRGAMPPAPVPPGTPAPPGPATMMPDGTLGLTPPTTERFGQAATMEGIGAIGGTPPAFNRPAPGAEFAPNKRRRY
notes: NonO cDNA expressed from a transfected plasmid; Its NonO fragments end at residue 473; The tag is therefore unknown; also called NonO OE; full-length NonO; source: BJ human diploid fibroblasts, stably transfected, nuclear or cytoplasmic extract
- binding: binds
